{"source": "PubChem BioAssay AID1347423", "about": "(Functional Genomics Laboratory (NCATS/FGL), 2020)", "note": "Screen size: about 52,000 sequences; about 210 (0.4%) were called active.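 The calls were made as follows: active = gene whose silencing raises cell survival under the drug, median off-target-corrected z-score across its silencing RNAs 2 or more; inactive = the rest.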 The list shows a part of the results.", "data": [{"experiment": "Resistance to Poly (ADP-Ribose) Polymerase inhibitor: Gene Identification via Genome-wide siRNA Screen", "details": "mouse BRCA2 R2336H ES cells, olaparib, CellTiter-Glo viability; active compounds read high", "how_it_was_run": "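Mouse BRCA2 R2336H ES cells were reverse-transfected with siRNA (20 nM final), treated at 48 h with 500 nM olaparib, and read by CellTiter-Glo after 72 h. Scores: MAD-based z per siRNA, median per gene, seed off-target correction.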", "values": [{"sequence": "GGUACUUUAUAGGAACAGUTT against 9830132G07Rik", "z-score": "inactive: -0.596"}, {"sequence": "CCAUUGAAAUUUCCAUCUGTT against Baalc", "z-score": "inactive: -0.132"}, {"sequence": "GGAAAGCUUCAAAAUGGUGTT against Foxj2", "z-score": "inactive: 0.338"}, {"sequence": "GGAGAGAGUUUUUGUUUUUTT against 2810012G03Rik", "z-score": "inactive: -0.18"}, {"sequence": "GUUUGCCAGAACUCUGAAATT against Lyzs", "z-score": "inactive: -0.533"}, {"sequence": "CCAGGUGUAACAAAAAAGATT against 2810047L02Rik", "z-score": "inactive: -2.25"}, {"sequence": "GGAGCACCUAACAACUGUUTT against 1300002F13Rik", "z-score": "inactive: 0.0155"}, {"sequence": "CCGCGUGUCUGCUAUCAUCTT against Wdfy1", "z-score": "inactive: 0.865"}, {"sequence": "GGGAUUCACUCUUCUUUAGTT against Og9x", "z-score": "inactive: 0.501"}, {"sequence": "GCGAUACAAAGCUAAUCCCTT against 3110009E18Rik", "z-score": "inactive: -0.616"}, {"sequence": "GCCUAAUAAGGAGAAACCATT against Car9", "z-score": "inactive: -0.731"}, {"sequence": "CGAUUCAUCUGUGUUCGUGTT against Bai1", "z-score": "inactive: 1.19"}, {"sequence": "GGAGUCCAUUUCAUGUUUUTT against Tiparp", "z-score": "inactive: -0.0426"}, {"sequence": "GGAGAACCUCAAUGACGUGTT against Prtn3", "z-score": "inactive: 2.47"}, {"sequence": "GCAUCAGAUUAUCUCACUGTT against Mtrf1l", "z-score": "inactive: -0.226"}, {"sequence": "CCUAUCAAAUUCAGAGGUUTT against 5830482F20Rik", "z-score": "inactive: -1.88"}, {"sequence": "GGGCAUCAAUUUAAGAAGCTT against D430015B01Rik", "z-score": "inactive: -0.0149"}, {"sequence": "CCAAUCUACUCCUAAGAACTT against V1rg11", "z-score": "inactive: -0.209"}, {"sequence": "CCAUGUCAGUUACAAUGCGTT against A530015O12Rik", "z-score": "inactive: 0.942"}, {"sequence": "GGGUCUCCGAAACUACUUATT against 5730537D05Rik", "z-score": "inactive: -0.581"}, {"sequence": "GGAAAGUGUGCUUCCAAUUTT against Olfr1138", "z-score": "inactive: 0.265"}, {"sequence": "GGAUCACAUCGAGAAAACCTT against Utrn", "z-score": "inactive: -1.1"}, {"sequence": "GCUAAACGAGAGAAAAAGATT against Arhgef10", "z-score": "inactive: -1.11"}, {"sequence": "GGCAUAUCAGACACCUCUUTT against Olfr697", "z-score": "inactive: 0.335"}, {"sequence": "CCAAUGGUUUAAGCCUAGCTT against 1300002K09Rik", "z-score": "inactive: 0.279"}, {"sequence": "CCCUGACUUAAUAAGAGACTT against B130017P16Rik", "z-score": "inactive: 1.5"}, {"sequence": "GGUGGUGGUUGGUAAUGAUTT against Kif4", "z-score": "inactive: 0.918"}, {"sequence": "GGCAAAACAACUUUAUUCCTT against Ucp2", "z-score": "inactive: 1.59"}, {"sequence": "GGAGCUCCAUGACAUGUUUTT against Stx3", "z-score": "inactive: 2.29"}, {"sequence": "GGGAGAAAAUCCAUUAUAUTT against AV273951", "z-score": "inactive: 2.38"}, {"sequence": "CCCUUUCUUUCAUGAGCCGTT against Dguok", "z-score": "inactive: -0.485"}, {"sequence": "GGCAGAAAGCAAAAUGUUUTT against Gata3", "z-score": "inactive: 0.838"}, {"sequence": "GGAACAGUCGGCCAUUUAATT against 6530411B15Rik", "z-score": "inactive: -1.96"}, {"sequence": "GGUACGACAAAGAAAAACCTT against Rnmt", "z-score": "inactive: -0.26"}, {"sequence": "CCCUUAUCCUCACGUCAGATT against Spic", "z-score": "inactive: -1.15"}, {"sequence": "CGUCAUCUUAUCAUGUAUUTT against Camk2d", "z-score": "inactive: 1.41"}, {"sequence": "GGUGUUCAGACUACCCUCUTT against Serpina3m", "z-score": "inactive: -1.88"}, {"sequence": "GGUAAUCAAGACCCACAAATT against Shank3", "z-score": "inactive: 1.36"}, {"sequence": "CCUUAUCAAAAAGCUCUCATT against Lats2", "z-score": "inactive: 0.703"}, {"sequence": "GGGAAGAUGGAAGACUACGTT against Ramp2", "z-score": "inactive: 0.127"}, {"sequence": "GGACCUCAGCGAAGACAAUTT against BC034097", "z-score": "active: 2.03"}, {"sequence": "GGUCAAAAGAAACAGGUGUTT against 2310047I15Rik", "z-score": "inactive: 0.438"}, {"sequence": "GGGAAGGAACUUGAUUUGUTT against D930040M24Rik", "z-score": "inactive: -0.651"}, {"sequence": "GCACCGUGACUCAGAUAGATT against Slco1c1", "z-score": "inactive: 2.45"}, {"sequence": "GCCUCUAUGUUACCACCUCTT against 9030611O19Rik", "z-score": "inactive: 1.63"}, {"sequence": "GGUAACUGCUUGCUACAGGTT against Npm3", "z-score": "inactive: -0.0411"}, {"sequence": "GGACUUACUCCACAGCCUATT against Tbp", "z-score": "inactive: 2.54"}, {"sequence": "GGAGGGACUUACCACAAGGTT against Timeless", "z-score": "inactive: -0.842"}, {"sequence": "GGGAGAAGGUAAGUGCAUGTT against 4933417O08Rik", "z-score": "inactive: -0.463"}, {"sequence": "CCGGUUAUGUUAAAGGCAATT against Tlk1", "z-score": "inactive: 0.123"}, {"sequence": "GGAUUCCUGCUUUCUUUGCTT against Rnf26", "z-score": "inactive: 0.804"}, {"sequence": "GGAGCAGAUGGUCCUGUUATT against Eda", "z-score": "inactive: -2"}]}]}
